According to article PMC2603589:
These are yes or no findings as the source states them, for the method shown. For some of these results: In cells and extracts the contact can be indirect. Some entries that bind do so weakly or less than the wild type. Blank lines part the entries; values can stand above or below the molecule they belong to.

Protein sequences, listed by entry. Tags and fused reporters are not part of them. Residues count along the entry.
UniProt P09803, residues 732-883: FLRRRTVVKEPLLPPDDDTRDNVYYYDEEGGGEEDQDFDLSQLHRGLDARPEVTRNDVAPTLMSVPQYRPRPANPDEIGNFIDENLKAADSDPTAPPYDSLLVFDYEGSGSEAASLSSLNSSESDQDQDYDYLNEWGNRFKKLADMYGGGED
UniProt P15116, residues 746-906: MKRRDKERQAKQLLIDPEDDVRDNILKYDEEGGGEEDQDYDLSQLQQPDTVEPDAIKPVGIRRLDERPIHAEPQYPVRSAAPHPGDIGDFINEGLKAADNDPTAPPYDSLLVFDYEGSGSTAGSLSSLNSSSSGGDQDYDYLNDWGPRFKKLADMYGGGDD
UniProt P45481: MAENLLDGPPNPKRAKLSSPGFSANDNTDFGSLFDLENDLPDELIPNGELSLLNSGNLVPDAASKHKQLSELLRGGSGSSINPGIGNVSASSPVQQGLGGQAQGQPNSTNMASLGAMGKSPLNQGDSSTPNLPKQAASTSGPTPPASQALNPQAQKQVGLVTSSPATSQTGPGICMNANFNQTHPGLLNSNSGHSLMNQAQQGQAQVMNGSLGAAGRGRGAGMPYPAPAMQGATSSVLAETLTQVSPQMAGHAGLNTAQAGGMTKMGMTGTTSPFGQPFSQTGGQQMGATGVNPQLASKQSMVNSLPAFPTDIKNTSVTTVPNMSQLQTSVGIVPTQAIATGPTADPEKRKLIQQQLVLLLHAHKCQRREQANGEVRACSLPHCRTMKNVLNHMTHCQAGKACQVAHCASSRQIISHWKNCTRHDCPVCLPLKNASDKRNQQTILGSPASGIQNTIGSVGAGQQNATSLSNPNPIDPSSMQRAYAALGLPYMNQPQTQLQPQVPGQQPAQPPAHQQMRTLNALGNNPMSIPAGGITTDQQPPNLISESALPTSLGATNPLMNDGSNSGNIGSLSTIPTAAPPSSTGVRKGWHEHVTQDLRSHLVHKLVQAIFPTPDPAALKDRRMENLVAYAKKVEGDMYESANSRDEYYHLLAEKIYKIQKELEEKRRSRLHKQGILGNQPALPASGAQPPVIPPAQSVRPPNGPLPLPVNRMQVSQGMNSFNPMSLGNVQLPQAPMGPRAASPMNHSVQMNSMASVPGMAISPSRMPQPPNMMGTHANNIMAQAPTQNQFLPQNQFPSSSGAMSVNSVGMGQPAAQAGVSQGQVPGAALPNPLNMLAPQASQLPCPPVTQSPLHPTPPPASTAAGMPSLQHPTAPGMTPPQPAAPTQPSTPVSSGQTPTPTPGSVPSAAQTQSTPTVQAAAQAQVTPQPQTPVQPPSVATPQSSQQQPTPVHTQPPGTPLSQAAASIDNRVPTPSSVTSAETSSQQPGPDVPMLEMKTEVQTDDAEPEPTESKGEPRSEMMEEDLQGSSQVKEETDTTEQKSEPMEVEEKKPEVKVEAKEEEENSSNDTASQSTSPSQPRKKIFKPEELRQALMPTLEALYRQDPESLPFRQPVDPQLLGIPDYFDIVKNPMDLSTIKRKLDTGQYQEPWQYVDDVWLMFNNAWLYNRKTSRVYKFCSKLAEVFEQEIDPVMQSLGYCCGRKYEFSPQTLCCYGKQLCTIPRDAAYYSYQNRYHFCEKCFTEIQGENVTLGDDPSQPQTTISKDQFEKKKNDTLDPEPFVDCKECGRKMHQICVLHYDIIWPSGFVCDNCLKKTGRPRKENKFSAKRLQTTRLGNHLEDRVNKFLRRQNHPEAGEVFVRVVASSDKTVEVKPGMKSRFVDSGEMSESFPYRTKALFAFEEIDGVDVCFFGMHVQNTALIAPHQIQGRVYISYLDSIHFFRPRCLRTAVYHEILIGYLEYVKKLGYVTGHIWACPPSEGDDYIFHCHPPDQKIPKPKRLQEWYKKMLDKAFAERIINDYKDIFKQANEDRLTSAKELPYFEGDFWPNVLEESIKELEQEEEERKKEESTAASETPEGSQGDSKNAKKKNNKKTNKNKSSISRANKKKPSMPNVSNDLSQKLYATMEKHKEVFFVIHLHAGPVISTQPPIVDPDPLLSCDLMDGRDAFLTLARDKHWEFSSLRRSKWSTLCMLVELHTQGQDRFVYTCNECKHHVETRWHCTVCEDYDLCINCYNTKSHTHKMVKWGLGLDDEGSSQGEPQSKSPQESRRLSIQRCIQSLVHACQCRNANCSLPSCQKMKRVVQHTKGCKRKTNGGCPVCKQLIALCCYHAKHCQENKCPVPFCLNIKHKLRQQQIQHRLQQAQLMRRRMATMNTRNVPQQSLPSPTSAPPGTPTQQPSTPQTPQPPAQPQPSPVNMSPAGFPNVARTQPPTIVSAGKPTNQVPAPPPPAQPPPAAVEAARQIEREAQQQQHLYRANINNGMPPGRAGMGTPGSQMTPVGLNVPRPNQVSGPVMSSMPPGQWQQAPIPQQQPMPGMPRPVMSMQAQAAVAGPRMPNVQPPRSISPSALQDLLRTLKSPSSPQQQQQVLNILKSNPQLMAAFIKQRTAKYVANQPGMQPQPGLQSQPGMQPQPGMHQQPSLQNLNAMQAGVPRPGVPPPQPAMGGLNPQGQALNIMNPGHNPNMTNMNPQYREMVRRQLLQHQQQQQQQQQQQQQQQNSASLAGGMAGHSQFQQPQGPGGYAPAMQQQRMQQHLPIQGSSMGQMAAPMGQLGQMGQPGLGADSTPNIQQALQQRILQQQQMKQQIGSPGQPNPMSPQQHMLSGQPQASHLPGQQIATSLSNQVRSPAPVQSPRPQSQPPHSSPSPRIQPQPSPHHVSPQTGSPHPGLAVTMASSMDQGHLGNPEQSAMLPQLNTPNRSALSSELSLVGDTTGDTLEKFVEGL

Tests used:
[1] = target: GST-E-cadh-CTF2 phosphorylated in vitro with CK1 (murine) (UniProt P09803); test: pull-down; 20 pmols of non-phosphorylated or CKI-phosphorylated GST-cadh-CTF2 proteins incubated with 1.2 mg of MEF PS (−/−) total cell extracts; glutathione-Sepharose; Western blot with anti-CBP; autoradiograms scanned; only the target purified
[2] = target: GST-N-cadh-CTF2 phosphorylated in vitro with CK1 (murine) (UniProt P15116); test: as above
[3] = target: GST-N-cadh-CTF2 (cytosolic domain of murine N-cadherin fused to GST) (murine) (UniProt P15116); test: as above
[4] = target: GST-E-cadh-CTF2 (cytosolic domain of murine E-cadherin fused to GST) (murine) (UniProt P09803); test: as above
[5] = target: CBP, endogenous in MEF PS (−/−) (mouse (endogenous in MEF)) (UniProt P45481); test: co-IP; MEFs PS (−/−) transfected with E-cadh-CTF2-GFP, 30 µM MG132 for 4 h; 500 µg of cytosolic fraction (RIPA buffer) with 2.5 µg of anti-CBP antibody
[6] = target: GST-E-cadh-CTF2 (cytosolic domain of murine E-cadherin fused to GST) (murine) (UniProt P09803); test: pull-down; 12 pmol of GST-E-cadh-CTF2 pre-incubated with 20 pmols of recombinant p120-catenin; read out as loss of PS1 from the MEF PS (+/+) extract; both purified
[7] = target: T1, β-catenin, endogenous in MEFs (mouse (endogenous in MEF)), Q02248; test: co-IP; 800 µg of MEF PS (−/−) and PS (+/+) total-cell extracts immunoprecipitated with an anti-β-catenin MAb; Western blot against Tcf-4 and β-catenin; details: remark: other sources report otherwise
T1 chain: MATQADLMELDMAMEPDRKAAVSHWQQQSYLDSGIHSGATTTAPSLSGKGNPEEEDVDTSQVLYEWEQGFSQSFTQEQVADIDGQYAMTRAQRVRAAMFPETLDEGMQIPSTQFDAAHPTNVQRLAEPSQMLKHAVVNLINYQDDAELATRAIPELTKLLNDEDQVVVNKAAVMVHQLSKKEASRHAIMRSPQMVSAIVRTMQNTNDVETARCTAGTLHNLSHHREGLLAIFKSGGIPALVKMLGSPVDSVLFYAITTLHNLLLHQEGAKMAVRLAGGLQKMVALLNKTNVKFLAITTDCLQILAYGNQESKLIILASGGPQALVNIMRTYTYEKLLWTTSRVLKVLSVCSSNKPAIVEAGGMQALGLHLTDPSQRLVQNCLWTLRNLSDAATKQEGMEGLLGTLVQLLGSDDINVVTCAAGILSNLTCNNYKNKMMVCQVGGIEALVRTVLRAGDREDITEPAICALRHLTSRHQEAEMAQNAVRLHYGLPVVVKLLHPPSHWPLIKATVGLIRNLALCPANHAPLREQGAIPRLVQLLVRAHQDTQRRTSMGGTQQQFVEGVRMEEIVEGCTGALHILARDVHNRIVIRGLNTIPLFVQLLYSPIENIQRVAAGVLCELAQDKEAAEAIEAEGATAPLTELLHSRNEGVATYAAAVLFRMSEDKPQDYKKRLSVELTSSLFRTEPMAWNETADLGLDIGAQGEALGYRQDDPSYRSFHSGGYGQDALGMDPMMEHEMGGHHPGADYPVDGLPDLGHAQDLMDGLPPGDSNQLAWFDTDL

binding [1]: binds
binding [2]: binds
binding [3]: binds
binding [4]: binds
Molecule: CBP, endogenous in MEF PS (−/−) (from UniProt P45481 1-2441)

binding [5]: binds
Molecule: E-cadh-CTF2-GFP (from UniProt P09803 732-883) (domain or fragment)

binding [6]: binds
B1: recombinant p120-catenin (protein, UniProt P30999 1-938)
chain: MDDSEVESTASILASVKEQEAQFEKLTRALEEERRHVSAQLERVRVSPQDANSLMANGTLTRRHQNGRFVGDADLERQKFSDLKLNGPQDHNHLLYSTIPRMQEPGQIVETYTEEDPEGAMSVVSVETTDDGTTRRTETTVKKVVKTMTTRTVQPVPMGPDGLPVDASAVSNNYIQTLGRDFRKNGNGGPGPYVGQAGTATLPRNFHYPPDGYGRHYEDGYPGGSDNYGSLSRVTRIEERYRPSMEGYRAPSRQDVYGPQPQVRVGGSSVDLHRFHPEPYGLEDDQRSMGYDDLDYGMMSDYGTARRTGTPSDPRRRLRSYEDMIGEEVPPDQYYWAPLAQHERGSLASLDSLRKGMPPPSNWRQPELPEVIAMLGFRLDAVKSNAAAYLQHLCYRNDKVKTDVRKLKGIPILVGLLDHPKKEVHLGACGALKNISFGRDQDNKIAIKNCDGVPALVRLLRKARDMDLTEVITGTLWNLSSHDSIKMEIVDHALHALTDEVIIPHSGWEREPNEDCKPRHIEWESVLTNTAGCLRNVSSERSEARRKLRECDGLVDALIFIVQAEIGQKDSDSKLVENCVCLLRNLSYQVHREIPQAERYQEALPTVANSTGPHAASCFGAKKGKDEWFSRGKKPTEDPANDTVDFPKRTSPARGYELLFQPEVVRIYISLLKESKTPAILEASAGAIQNLCAGRWTYGRYIRSALRQEKALSAIAELLTSEHERVVKAASGALRNLAVDARNKELIGKHAIPNLVKNLPGGQQNSSWNFSEDTVVSILNTINEVIAENLEAAKKLRETQGIEKLVLINKSGNRSEKEVRAAALVLQTIWGYKELRKPLEKEGWKKSDFQVNLNNASRSQSSHSYDDSTLPLIDRNQKSDKKPDREEIPMSNMGSNTKSLDNNYSTLNERGDHNRTLDRSGDLGDMEPLKGAPLMQKI

binding [7]: binds
B2: Tcf-4, endogenous in MEFs, Q924A0 1-459 (protein)
chain: MPQLNGGGGDDLGANDELISFKDEGEQEEKNSENSSAERDLADVKSSLVNESETNQDSSSDSEAERRPPPRSESFRDKSRESLEEAAKRQDGGLFKGPPYPGYPFIMIPDLTSPYLPNGSLSPTARTYLQMKWPLLDVQAGSLQSRQTLKDARSPSPAHIVSNKVPVVQHPHHVHPLTPLITYSNEHFTPGNPPPHLPADVDPKTGIPRPPHPPDISPYYPLSPGTVGQIPHPLGWLVPQQGQPVYPITTGGFRHPYPTALTVNASMSRFPPHMVPPHHTLHTTGIPHPAIVTPTVKQESSQSDVGSLHSSKHQDSKKEEEKKKPHIKKPLNAFMLYMKEMRAKVVAECTLKESAAINQILGRRWHALSREEQAKYYELARKERQLHMQLYPGWSARDNYGKKKKRKRDKQPGETNEHSECFLNPCLSLPPITDLSAPKKCRARFGLDQQNNWCGPCSL
